Reference: PubChem BioAssay AID1487 (National Center for Advancing Translational Sciences (NCATS), 2009)
Values joined by “and” are separate entries in the source; they are usually repeats but may differ in a detail not shown here. Identical values can stand only once. Some of the results follow. These are further read-outs of the screen, such as a control signal, another cell line or another target. No call is given for them. Most of these compounds were active or inconclusive in the main read-out, so they are no random draw. Words in brackets tell the shape of the fitted curve; partial curves, single points and poor fits give uncertain potencies.

Assay: qHTS Assay for Modulators of Lamin A Splicing
Details: HeLa LMNA splicing GFP/RFP minigene ratio, 48 h
How it was run: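 S3 HeLa cells stably expressing lamin A-EGFP splicing minigene plus DsRed2, 600 cells/well, 48 h compound exposure at 37C. Laser-scanning cytometry; analysed as GFP (500-530 nm)/RFP (575-640 nm) total intensity ratio; 0.5% DMSO vehicle.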

[1] = measured here: RFP viability control channel
[2] = measured here: GFP splicing reporter channel

| Structure (SMILES) | AC50 [1] | AC50 [2] |
| --- | --- | --- |
| COP(=S)(OC)Oc1ccc(S(=O)(=O)N(C)C)cc1 | 0.355 µM [rising, partial curve] | – |
| CN1/C(=C\C=C\C2=[N+](C)c3ccc4ccccc4c3C2(C)C)C(C)(C)c2ccccc21 | – | 5.62 µM [falling, single point] |
| COc1ccc(CC2(CCc3ccncc3)C(=O)NC(=O)NC2=O)c(OC)c1 | 0.02 µM [falling, full curve, poor fit] | – |
| O=C(Nc1nc2ccccc2s1)c1cccn(Cc2ccccc2)c1=O | 0.316 µM [falling, full curve, poor fit] | 0.112 µM [falling, full curve, poor fit] |
| O=C(Nc1ccc(Br)cc1)c1ccc(Cl)c(S(=O)(=O)N2CCCCCC2)c1 | 0.0631 µM [falling, full curve, poor fit] | 20 µM [falling, partial curve] |
| Cc1cc(NC(=O)CSc2nc3c([nH]c4ccccc43)c(=O)n2-c2ccc(Cl)cc2)no1 | 11.2 µM [falling, partial curve] | – |
| O=C1NC(=O)[C@]2(Cc3ccccc3N3CCN(c4ccccc4)CC32)C(=O)N1c1ccccc1 (stereo partly specified) | 31.6 µM [rising, single point] | 35.5 µM [rising, single point] |
| CN(C)[C@H]1C(=O)C(C(N)=O)=C(O)[C@]2(O)C(=O)C3=C(O)c4c(O)cccc4[C@@](C)(O)[C@H]3C[C@@H]12 | 0.00178 µM [rising, full curve, poor fit] | 0.00631 µM [rising, full curve, poor fit] |
| CCc1c(C(=O)NN2C(=O)C3C4CCC(O4)C3C2=O)csc1C (stereo unspecified) | 35.5 µM [rising, single point] | – |
| Oc1c(Br)cc(Br)cc1Oc1ccc(Br)cc1Br | 20 µM [rising, partial curve] | 11.2 µM [rising, partial curve] |
| Cc1ccc(NP(=O)(Oc2ccccc2F)Oc2ccccc2F)cc1 | 20 µM [falling, single point] | 35.5 µM [falling, single point] |
| CN(C)C(=O)Oc1ccc(OCc2nc3ccccc3[nH]2)cc1 | 17.8 µM [rising, partial curve] | 15.8 µM [rising, partial curve, poor fit] |
| COc1ccc(N2CCN(C(=O)c3cc(=O)[nH]c4ccccc34)CC2)cc1 | – | 0.0631 µM [falling, partial curve] |
| CC(=O)c1ccc2c(c1)C1C(Cl)C(Sc3ccccc3[N+](=O)[O-])CC1C(C(=O)O)N2 (stereo unspecified) | 20 µM [rising, single point] | – |
| CN(C)c1ccc(-[n+]2c(-c3ccccc3)cc(-c3ccccc3)cc2-c2ccccc2)cc1 | 2.51 µM [rising, partial curve, poor fit] | – |
| CCc1ccc(NP(=O)(Oc2ccccc2F)Oc2ccccc2F)cc1 | – | 35.5 µM [falling, single point] |
| CC1OC(O[C@@H]2C(O)CC(O[C@@H]3C(O)C[C@@H](OC4CC[C@]5(C)[C@H](CC[C@H]6[C@@H]5CC[C@]5(C)C(C7=CC(=O)OC7)C(O)C[C@@]65O)C4)OC3C)OC2C)CC(O)C1O (stereo partly specified) | 0.316 µM [falling, full curve, poor fit] | 0.501 µM [falling, full curve] |
| c1ccc2c(c1)OCC(C1=NCCN1)O2 (stereo unspecified) | 5.62 µM [rising, full curve] and 3.98 µM [rising, full curve, poor fit] | 7.08 µM [falling, full curve] and 31.6 µM [falling, single point] |
| Cc1ccc(C(C)C)c(OCC#CCN2CCCC2)c1 | – | 0.0316 µM [falling, full curve, poor fit] |
| Oc1c(Br)cc(Br)cc1CN1CCN(Cc2ccccc2)CC1 | 17.8 µM [rising, single point] | – |
| COC(=O)C(O)(c1c(C)[nH]n(-c2ccccc2)c1=O)C(F)(F)F (stereo unspecified) | 12.6 µM [rising, partial curve] | 12.6 µM [rising, single point] |
| COc1ccc(N=Cc2c(O)n(Cc3cccs3)c(=O)[nH]c2=O)cc1 | 35.5 µM [falling, single point] | 35.5 µM [falling, single point] |
| Cc1ccc(NP(=O)(Nc2ccc(C)cc2)Oc2ccccc2)cc1 | 12.6 µM [falling, partial curve] | 15.8 µM [falling, partial curve, poor fit] |
| CCc1ccc(N(CC)C(=O)CCn2cnc3onc(-c4ccc(F)cc4)c3c2=O)cc1 | 22.4 µM [falling, single point] | 28.2 µM [falling, single point] |
| CCCN(CCC)[C@H]1CCc2c(F)ccc(O)c2C1 | 5.01 µM [rising, full curve, poor fit] | 3.98 µM [rising, full curve, poor fit] |

| Structure (SMILES) | AC50 [1] | AC50 [2] |
| --- | --- | --- |
| CCCCc1ccc(C(=O)O)nc1 | 7.08 µM [rising, partial curve] | – |
| CN(CC1COc2ccccc2O1)c1nc(-c2cccnc2)nc2ccccc12 (stereo unspecified) | 14.1 µM [rising, single point] | 12.6 µM [rising, partial curve] |
| CCOc1ccc(-c2cc(C)[n+](CCO)c(-c3ccc(OCC)cc3)c2)cc1 | 31.6 µM [rising, single point] | 35.5 µM [rising, single point] |
| CCN(CC)C(=O)N[C@@H]1C[C@@H]2c3cccc4[nH]cc(c34)C[C@H]2N(C)C1 | 0.0447 µM [falling, full curve, poor fit] | 0.0447 µM [falling, full curve, poor fit] |
| CCc1ccc(-c2nn(Cc3ccccc3)cc2C=O)cc1 | 3.98 µM [rising, full curve] | 3.55 µM [rising, partial curve] |
| Cc1ccc(C(=O)N/C(=C\Cl)P(=O)(c2ccccc2)c2ccccc2)cc1 | 10 µM [rising, partial curve, poor fit] | – |
| O=C(Nc1nnc(SCc2ccccc2Cl)s1)C1COc2ccccc2O1 (stereo unspecified) | 11.2 µM [rising, single point] | – |
| CCC1(c2ccccc2)CCC(=O)NC1=O (stereo unspecified) | – | 3.55 µM [falling, partial curve, poor fit] |
| Cn1c(O)c(C(=O)c2ccccc2)c(=O)n(C)c1=O | 14.1 µM [rising, single point] | – |
| C[N+](C)(C)CC#CCOC(=O)Nc1cccc(Cl)c1 | 4.47 µM [rising, full curve, poor fit] | 0.000794 µM [rising, full curve, poor fit] |
| O=C1NC(=S)N(C2CC2)C(=O)/C1=C/c1ccc2c(c1)CCN2CCCCl | 14.1 µM [rising, single point] | – |
| CC1(C(O)(C#CCN2CCCCC2)c2ccccc2)CCCC1 (stereo unspecified) | 35.5 µM [falling, single point] | 0.794 µM [rising, single point] |
| COc1cccc(NC(=O)C2CCN(S(=O)(=O)c3cc(-c4noc(C)n4)ccc3C)CC2)c1 | 3.55 µM [falling, partial curve, poor fit] | – |
| CC(C)(O)C(Cl)(Cl)Cl | – | 0.0316 µM [rising, full curve, poor fit] |
| O=c1[nH]c(=S)n(C2CC2)c(O)c1/C=N/Nc1ccccc1 | 31.6 µM [rising, single point] | 14.1 µM [rising, single point] |
| NCCNCCNCCNCCN | 0.0891 µM [falling, full curve] | 0.398 µM [falling, full curve] |
| Cc1cc(OCC(=O)N2CCN(CCc3ccccn3)CC2)cc(C)c1Cl | – | 2.82 µM [rising, partial curve, poor fit] |
| C=CCN1CCC23c4c5ccc(O)c4O[C@H]2C(=O)CC[C@@]3(O)C1C5 (stereo partly specified) | 35.5 µM [falling, single point] | 35.5 µM [falling, single point] |
| CC(=O)Oc1ccc(/C=C/c2cc(OC(C)=O)cc(OC(C)=O)c2)cc1 | 35.5 µM [rising, single point] | – |
| CCCCCCCCCc1ccc(OCCOCCOCCOCCOCCOCCOCCOCCOCCO)cc1 | 0.00891 µM [falling, partial curve, poor fit] | 0.00251 µM [falling, full curve, poor fit] |
| Cn1c(=O)oc2cc(S(=O)(=O)CCC(=O)NCCc3ccccc3)ccc21 | 0.00891 µM [falling, full curve] | – |
| Cc1ncc(CNC(=O)N(CCCl)N=O)c(N)n1 | 2.24 µM [rising, partial curve, poor fit] | 5.62 µM [falling, partial curve, poor fit] |
| CC(=O)C1C2c3ccccc3O[C@@]1(C)N=c1s/c(=C/c3ccoc3)c(=O)n12 (stereo partly specified) | – | 31.6 µM [rising, single point] |
| COc1ccc(CCN2CCC(CNC(=O)c3cnn(-c4ccc(C)cc4)c3C3CCN(C(=O)OC(C)(C)C)CC3)CC2)cc1 | 22.4 µM [falling, single point] | 35.5 µM [falling, single point] |
| CCOc1cc(C2C(C#N)=C(N)Oc3c2c(=O)oc2ccccc32)ccc1OC(=O)c1cccs1 (stereo unspecified) | 20 µM [rising, single point] | – |
